{
  "sequences": {"note": "The chains behind the UniProt entries cited, without tags or fusion partners. Residues count along the entry.", "UniProt P05091, 18-517": "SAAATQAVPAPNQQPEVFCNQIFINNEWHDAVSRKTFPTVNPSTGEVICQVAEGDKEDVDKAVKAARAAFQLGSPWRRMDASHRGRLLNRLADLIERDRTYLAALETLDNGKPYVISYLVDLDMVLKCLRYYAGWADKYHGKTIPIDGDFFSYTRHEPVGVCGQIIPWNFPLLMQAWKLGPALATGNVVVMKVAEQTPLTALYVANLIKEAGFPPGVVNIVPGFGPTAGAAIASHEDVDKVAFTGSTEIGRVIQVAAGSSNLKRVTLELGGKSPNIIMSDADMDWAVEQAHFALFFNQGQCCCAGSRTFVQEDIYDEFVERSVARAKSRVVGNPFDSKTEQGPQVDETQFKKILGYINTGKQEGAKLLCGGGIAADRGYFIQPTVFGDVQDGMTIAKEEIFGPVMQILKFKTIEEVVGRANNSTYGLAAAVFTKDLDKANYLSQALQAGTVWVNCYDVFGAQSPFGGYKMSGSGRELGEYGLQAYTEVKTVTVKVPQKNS"},
  "source": "patent US9320722B2",
  "about": "“Regulators of aldehyde dehydrogenase ALDH3A1 and related therapeutic methods” (Indiana University Research and Technology Corporation, priority 2013, dated 2016)",
  "target": "ALDH2 (Homo sapiens (Human), UniProt P05091)",
  "assay": "ALDH2 dehydrogenase activity / IC50 determination (propionaldehyde substrate)",
  "assay_type": "biochemical",
  "note": "For at least one compound, name, drawing or mass did not settle the structure.",
  "data": [
    {"smiles": "CC(=O)Nc1ccc(Nc2ccc(S(C)(=O)=O)cc2[N+](=O)[O-])cc1", "note": "[CB29, N-[4-{(4-(methylsulfonyl)-2-nitrophenyl)-4-amino}-phenyl]-acetamide]", "values": [
      {"measurement": "inhibitory potential toward ALDH2 activity in vitro (in words)", "setting": "CB29 analogs", "result": "no inhibitory potential"},
      {"measurement": "inhibition of ALDH2 (in words)", "setting": "up to / at 250 μM concentration", "result": "does not inhibit"}
    ]}
  ]
}
